Common to all, as to assay: co-IP
Assay [1] has as its target T1, HA tagged PERK K618A kinase-dead mutant (UniProt Q9Z2B5).
T1 sequence: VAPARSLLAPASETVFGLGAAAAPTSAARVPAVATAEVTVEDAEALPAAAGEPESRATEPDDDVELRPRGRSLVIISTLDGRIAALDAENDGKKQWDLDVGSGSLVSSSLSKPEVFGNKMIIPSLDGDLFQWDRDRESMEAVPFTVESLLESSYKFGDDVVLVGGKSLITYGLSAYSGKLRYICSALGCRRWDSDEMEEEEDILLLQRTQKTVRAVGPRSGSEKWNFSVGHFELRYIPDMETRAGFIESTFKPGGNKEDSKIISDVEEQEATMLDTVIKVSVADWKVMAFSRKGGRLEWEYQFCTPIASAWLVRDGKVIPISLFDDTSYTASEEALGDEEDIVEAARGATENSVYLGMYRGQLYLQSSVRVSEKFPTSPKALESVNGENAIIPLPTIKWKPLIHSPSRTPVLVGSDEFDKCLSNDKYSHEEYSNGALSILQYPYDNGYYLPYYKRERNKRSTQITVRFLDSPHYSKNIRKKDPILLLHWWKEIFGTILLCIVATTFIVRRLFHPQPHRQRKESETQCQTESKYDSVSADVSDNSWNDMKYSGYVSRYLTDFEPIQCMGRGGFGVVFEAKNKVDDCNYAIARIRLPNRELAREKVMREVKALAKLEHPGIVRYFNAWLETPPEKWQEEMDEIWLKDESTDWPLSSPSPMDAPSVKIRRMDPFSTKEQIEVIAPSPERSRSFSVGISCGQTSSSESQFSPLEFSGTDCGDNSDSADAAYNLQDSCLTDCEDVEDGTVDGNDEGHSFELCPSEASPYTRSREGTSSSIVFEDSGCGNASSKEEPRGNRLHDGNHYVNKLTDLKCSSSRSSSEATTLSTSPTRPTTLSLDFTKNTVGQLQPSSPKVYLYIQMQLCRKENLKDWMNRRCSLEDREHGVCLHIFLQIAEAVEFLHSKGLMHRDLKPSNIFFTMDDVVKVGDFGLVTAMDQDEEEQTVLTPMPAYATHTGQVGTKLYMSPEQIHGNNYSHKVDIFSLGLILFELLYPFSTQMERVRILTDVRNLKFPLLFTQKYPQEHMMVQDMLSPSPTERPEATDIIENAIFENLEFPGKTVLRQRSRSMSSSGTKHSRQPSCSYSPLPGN

Sequences of proteins named here, by UniProt entry; tags and fusion partners are left off. A change or cut given only in a name is not applied to a line headed by its entry.
UniProt P05198, whole entry: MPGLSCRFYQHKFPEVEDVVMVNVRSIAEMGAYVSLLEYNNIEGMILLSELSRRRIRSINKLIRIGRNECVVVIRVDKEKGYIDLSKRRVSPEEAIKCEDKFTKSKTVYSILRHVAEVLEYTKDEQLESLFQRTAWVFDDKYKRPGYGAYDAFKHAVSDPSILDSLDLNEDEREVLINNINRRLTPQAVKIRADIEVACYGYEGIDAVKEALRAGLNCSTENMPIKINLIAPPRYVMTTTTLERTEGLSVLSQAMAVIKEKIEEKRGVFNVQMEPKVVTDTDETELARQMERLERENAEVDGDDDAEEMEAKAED

Assay [2] concerns the target T2, HA tagged wild type PERK (PKR-like Endoplasmic Reticulum Kinase) (UniProt Q9Z2B5).
T2 sequence: T1 sequence with A590K

For assay [3], the target named is T3, PERK (in the immunoprecipitation of Figure 2d) (UniProt Q9Z2B5).
T3 sequence: T1 sequence with A590K

Residue numbers refer to the chain shown, from its start. Results are given in words; binding and its absence hold for the method and conditions named. Binding seen in cells or lysates may run through a third protein. Some results given as binding are weak or reduced against the parent protein; the word gives no strength. For part of these data: Sequences can lack the tags named with a protein.

Take “eIF2α (in HEK 293 cells) (from UniProt P05198 1-315)”: the binding result in assay [1] was “no binding”; in assay [2], “binds”.

B1: ATAD3A Δ1-240 (domain or fragment, UniProt Q9NVI7 241-586)
chain: VTDWDKVTATVAGLTLLAVGVYSAKNATLVAGRFIEARLGKPSLVRETSRITVLEALRHPIQVSRRLLSRPQDALEGVVLSPSLEARVRDIAIATRNTKKNRSLYRNILMYGPPGTGKTLFAKKLALHSGMDYAIMTGGDVAPMGREGVTAMHKLFDWANTSRRGLLLFVDEADAFLRKRATEKISEDLRATLNAFLYRTGQHSNKFMLVLASNQPEQFDWAINDRINEMVHFDLPGQEERERLVRMYFDKYVLKPATEGKQRLKLAQFDYGRKCSEVARLTEGMSGREIAQLAVSWQATAYASEDGVLTEAMMDTRVQDAVQQHQQKMCWLKAEGPGRGDEPSPS
Consider B1, for which, in assay [3], the binding result is reported as “no binding”.

The values are drawn from publication doi:10.1101/2022.07.24.501280.
